The list does not hold the whole screen: it gathers tests that were run many times, whatever their T/C, doses with no T/C, and many T/C values between a quarter and a half above the control. Further doses and runs are listed elsewhere. T/C is the treated group as % of the vehicle group. Some entries give survivors of the animals treated and no T/C: the source holds a T/C of zero for them, seemingly a mark for toxic or unscored doses. Some survivor counts are full or nearly so, which does not show that the dose was tolerated: the source hardly ever lists a survival T/C far under the control, and the zero likely stands for such cases as well. Counts of survivors are from the toxicity check (mostly the fifth day) where no day follows; animals may have died later. Schedule codes are those of the source, taken here to give the interval after Q, in days (D) or hours (H), and the number of doses after X. Some schedules carry Z or #; the key to these is not given. Some entries hold several experiments; the values are given in rising order. Some structures stand for samples that the source files as different forms (salt, stereo form or complex); doses refer to the form tested. Where survival is the endpoint, this PubChem deposit counts one and a half times the control or more as active, and values a quarter to a half above the control carry no call in these data; other NCI protocols may use other cut-offs. Some T/C values are followed by the survivors on the day toxicity was checked, most often the fifth; where none is given, no animal had died by that day.
System: L1210 leukemia ip in BDF1 mice, survival T/C
Experiment: NCI In Vivo Anticancer Drug Screen. Data for tumor model L1210 Leukemia (intraperitoneal) in B6D2F1 (BDF1) mice
Conditions: T/C endpoint: mean survival time, higher T/C = longer survival
[1] = dose: 100.0 mg/kg/injection, schedule: Q01DX001 (ip), vehicle: saline
[2] = dose: 100.0 mg/kg/injection, schedule: Q01DX009 (ip), vehicle: saline
[3] = dose: 150.0 mg/kg/injection, schedule: Q01DX001 (ip), vehicle: saline
[4] = dose: 200.0 mg/kg/injection, schedule: Q04DX003 (ip), vehicle: Klucel (hydroxypropylcellulose) (HPC)
[5] = dose: 400.0 mg/kg/injection, schedule: Q04DX003 (ip), vehicle: Klucel (hydroxypropylcellulose) (HPC)
[6] = dose: 400.0 mg/kg/injection, schedule: Q01DX001 (ip), vehicle: carboxymethylcellulose (CMC)
[7] = dose: 100.0 mg/kg/injection, schedule: Q04DX002 (ip), vehicle: saline
[8] = dose: 200.0 mg/kg/injection, schedule: Q04DX002 (ip), vehicle: saline
[9] = dose: 400.0 mg/kg/injection, schedule: Q04DX002 (ip), vehicle: saline
[10] = dose: 100.0 mg/kg/injection, schedule: Q04DX003 (ip), vehicle: Klucel (hydroxypropylcellulose) (HPC)
[11] = dose: 300.0 mg/kg/injection, schedule: Q01DX001 (ip), vehicle: saline

Question: `c1nc(SSc2ncnc3nc[nH]c23)c2[nH]cnc2n1` was tested. Which T/C (dose: 0.4 mg/kg/injection, schedule: Q04DX003 (ip), vehicle: saline) did it give?
Answer: Its T/C is 128 % of control.

Question: What about the survivor count (dose: 0.5 mg/kg/injection, schedule: Q01DX009 (ip), vehicle: saline) of the same compound?
Answer: Its survivor count is 6 of 6.

Question: What about the T/C (dose: 0.75 mg/kg/injection, schedule: Q04DX003 (ip), vehicle: saline) of the same compound?
Answer: The T/C was 136 % of control.

Question: What about the T/C (dose: 1.0 mg/kg/injection, schedule: Q04DX003 (ip), vehicle: saline) of the same compound?
Answer: Its T/C is 126 % of control.

Question: And the T/C (dose: 1.2 mg/kg/injection, schedule: Q01DX009 (ip), vehicle: saline)?
Answer: Its T/C is 125 % of control.

Question: What about the T/C (dose: 1.5 mg/kg/injection, schedule: Q04DX003 (ip), vehicle: saline) of the same compound?
Answer: Its T/C is 145 % of control.

Question: What about the T/C (dose: 3.0 mg/kg/injection, schedule: Q04DX003 (ip), vehicle: saline) of the same compound?
Answer: The T/C was 132 % of control.

Question: What about the T/C (dose: 4.62 mg/kg/injection, schedule: Q01DX001 (ip), vehicle: saline with Tween-80) of the same compound?
Answer: The T/C was 126 % of control.

Question: What about the T/C (dose: 6.0 mg/kg/injection, schedule: Q04DX003 (ip), vehicle: saline) of the same compound?
Answer: The T/C was 131 % of control.

Question: What about the T/C (dose: 6.5 mg/kg/injection, schedule: Q04DX003 (ip), vehicle: saline with Tween-80) of the same compound?
Answer: The T/C was 130 % of control.

Question: What about the T/C (dose: 7.0 mg/kg/injection, schedule: Q01DX001 (ip), vehicle: saline) of the same compound?
Answer: Its T/C is 126 and 133 % of control.

Question: And the T/C (dose: 8.2 mg/kg/injection, schedule: Q04DX003 (ip), vehicle: Klucel (hydroxypropylcellulose) (HPC))?
Answer: The T/C was 134 % of control.

Question: And the T/C (dose: 10.0 mg/kg/injection, schedule: Q01DX001 (ip), vehicle: saline)?
Answer: Its T/C is 143 % of control.

Question: And the T/C (dose: 12.5 mg/kg/injection, schedule: Q04DX003 (ip), vehicle: Klucel (hydroxypropylcellulose) (HPC))?
Answer: The T/C was 126 % of control.

Question: And the T/C (dose: 13.0 mg/kg/injection, schedule: Q04DX003 (ip), vehicle: saline with Tween-80)?
Answer: The T/C was 143 % of control.

Question: And the T/C (dose: 19.0 mg/kg/injection, schedule: Q01DX001 (ip), vehicle: saline)?
Answer: Its T/C is 136 % of control.

Question: What about the T/C (dose: 23.0 mg/kg/injection, schedule: Q01DX009 (ip), vehicle: saline) of the same compound?
Answer: Its T/C is 132 % of control.

Question: And the T/C (dose: 25.0 mg/kg/injection, schedule: Q04DX003 (ip), vehicle: Klucel (hydroxypropylcellulose) (HPC))?
Answer: The T/C was 137 % of control.

Question: What about the T/C (dose: 26.0 mg/kg/injection, schedule: Q04DX003 (ip), vehicle: saline with Tween-80) of the same compound?
Answer: The T/C was 148 % of control.

Question: What about the T/C (dose: 29.7 mg/kg/injection, schedule: Q04DX003 (ip), vehicle: saline) of the same compound?
Answer: The T/C was 149 % of control.

Question: What about the T/C (dose: 30.0 mg/kg/injection, schedule: Q04DX003 (ip), vehicle: acetone) of the same compound?
Answer: The T/C was 145 % of control.

Question: What about the T/C (dose: 35.0 mg/kg/injection, schedule: Q01DX009 (ip), vehicle: saline) of the same compound?
Answer: The T/C was 127 % of control.

Question: And the T/C (dose: 45.0 mg/kg/injection, schedule: Q04DX003 (ip), vehicle: acetone)?
Answer: Its T/C is 145 % of control.

Question: What about the T/C (dose: 50.0 mg/kg/injection, schedule: Q04DX003 (ip), vehicle: Klucel (hydroxypropylcellulose) (HPC)) of the same compound?
Answer: Its T/C is 135 % of control.

Question: What about the T/C (dose: 66.0 mg/kg/injection, schedule: Q01DX001 (ip), vehicle: saline) of the same compound?
Answer: Its T/C is 130 % of control.

Question: What about the survivor count (dose: 66.0 mg/kg/injection, schedule: Q01DX009 (ip), vehicle: saline) of the same compound?
Answer: The survivor count was 6 of 6.

Question: What about the T/C (dose: 67.5 mg/kg/injection, schedule: Q04DX003 (ip), vehicle: saline) of the same compound?
Answer: Its T/C is 149 % of control.

Question: What about the T/C (dose: 75.0 mg/kg/injection, schedule: Q04DX003 (ip), vehicle: Klucel (hydroxypropylcellulose) (HPC)) of the same compound?
Answer: The T/C was 136 and 149 % of control.

Question: What about the T/C (dose: 100.0 mg/kg/injection, schedule: Q01DX001 (ip), vehicle: acetone) of the same compound?
Answer: Its T/C is 149 % of control.

Question: What about the T/C [1] of the same compound?
Answer: Its T/C is 142 % of control.

Question: And the survivor count [2]?
Answer: The survivor count was 5 of 6.

Question: What about the survivor count (dose: 125.0 mg/kg/injection, schedule: Q01DX Z (ip), vehicle: saline) of the same compound?
Answer: Its survivor count is 5 of 6.

Question: What about the survivor count (dose: 140.0 mg/kg/injection, schedule: Q01DX009 (ip), vehicle: saline with Tween-80) of the same compound?
Answer: The survivor count was 4 of 6.

Question: And the T/C [3]?
Answer: Its T/C is 136 [5 of 6 alive] and 143 % of control.

Question: What about the survivor count (dose: 150.0 mg/kg/injection, schedule: Q04DX003 (ip), vehicle: saline) of the same compound?
Answer: The survivor count was 6 of 6.

Question: And the T/C (dose: 200.0 mg/kg/injection, schedule: Q01DX001 (ip), vehicle: acetone)?
Answer: The T/C was 146 % of control.

Question: And the survivor count [4]?
Answer: Its survivor count is 5 of 6.

Question: And the T/C (dose: 200.0 mg/kg/injection, schedule: Q04DX003 (ip), vehicle: saline)?
Answer: The T/C was 148 % of control.

Question: What about the survivor count (dose: 250.0 mg/kg/injection, schedule: Q01DX Z (ip), vehicle: saline) of the same compound?
Answer: Its survivor count is 2 of 6.

Question: What about the survivor count (dose: 280.0 mg/kg/injection, schedule: Q04DX003 (ip), vehicle: saline) of the same compound?
Answer: The survivor count was 5 of 6.

Question: And the survivor count (dose: 300.0 mg/kg/injection, schedule: Q04DX003 (ip), vehicle: saline)?
Answer: The survivor count was 6 of 6.

Question: And the survivor count (dose: 400.0 mg/kg/injection, schedule: Q01DX001 (ip), vehicle: acetone)?
Answer: Its survivor count is 4 of 6.

Question: What about the survivor count [5] of the same compound?
Answer: The survivor count was 5 of 6.

Question: And the survivor count (dose: 400.0 mg/kg/injection, schedule: Q04DX003 (ip), vehicle: saline)?
Answer: The survivor count was 6 of 6.

Question: And the survivor count (dose: 500.0 mg/kg/injection, schedule: Q01DX Z (ip), vehicle: saline)?
Answer: The survivor count was 0 of 6.

Question: What does the source list for `CC[Si](CC)(CC)N1CC1`?
Answer: survivor count (dose: 100.0 mg/kg/injection, schedule: Q01DX001 (ip), vehicle: carboxymethylcellulose (CMC)): 0 of 4; survivor count (dose: 200.0 mg/kg/injection, schedule: Q01DX001 (ip), vehicle: carboxymethylcellulose (CMC)): 0 of 4; survivor count [6]: 0 of 4

Question: For `CN(C)N=Nc1ccccc1C(=O)NN`, which survivor count (dose: 150.0 mg/kg/injection, schedule: Q01DX009 (ip), vehicle: Klucel (hydroxypropylcellulose) (HPC)) is on record?
Answer: Its survivor count is 3 of 6.

Question: And the survivor count (dose: 300.0 mg/kg/injection, schedule: Q01DX009 (ip), vehicle: Klucel (hydroxypropylcellulose) (HPC))?
Answer: Its survivor count is 0 of 6 and 1 of 6.

Question: And the survivor count [6]?
Answer: Its survivor count is 0 of 4.

Question: Which results are given for `NC(=S)NN=C1CSSC1`?
Answer: survivor count (dose: 25.0 mg/kg/injection, schedule: Q04DX003 (ip), vehicle: water): 6 of 6; survivor count (dose: 50.0 mg/kg/injection, schedule: Q01DX009 (ip), vehicle: water): 4 of 6; survivor count (dose: 50.0 mg/kg/injection, schedule: Q04DX003 (ip), vehicle: water): 4 of 6

Question: How did the survivor count [7] turn out when `CN(C)C(N1CC1)N1CC1` was run?
Answer: Its survivor count is 0 of 3.

Question: What about the survivor count [8] of the same compound?
Answer: Its survivor count is 0 of 3.

Question: And the survivor count [9]?
Answer: Its survivor count is 0 of 3.

Question: `c1ccc([Se]c2ccccn2)nc1` was tested. Which survivor count (dose: 50.0 mg/kg/injection, schedule: Q01DX009 (ip), vehicle: Klucel (hydroxypropylcellulose) (HPC)) did it give?
Answer: Its survivor count is 4 of 6.

Question: And the survivor count (dose: 100.0 mg/kg/injection, schedule: Q01DX001 (ip), vehicle: Klucel (hydroxypropylcellulose) (HPC))?
Answer: The survivor count was 1 of 6.

Question: What about the survivor count [10] of the same compound?
Answer: Its survivor count is 3 of 6.

Question: And the survivor count (dose: 200.0 mg/kg/injection, schedule: Q01DX001 (ip), vehicle: Klucel (hydroxypropylcellulose) (HPC))?
Answer: The survivor count was 0 of 6.

Question: What about the survivor count [4] of the same compound?
Answer: The survivor count was 0 of 6.

Question: What about the survivor count (dose: 400.0 mg/kg/injection, schedule: Q01DX001 (ip), vehicle: Klucel (hydroxypropylcellulose) (HPC)) of the same compound?
Answer: The survivor count was 0 of 6.

Question: `CCc1ccc(C)[n+](C)c1` was tested. Which survivor count [11] did it give?
Answer: Its survivor count is 3 of 6.

Question: Which results are given for `C#CCOS(C)(=O)=O`?
Answer: survivor count (dose: 40.0 mg/kg/injection, schedule: Q01DX009 (ip), vehicle: saline): 3 of 3; survivor count [7]: 1 of 3; survivor count [8]: 0 of 3; survivor count [9]: 0 of 3

Question: With `O=C(O)c1ccccc1C(=O)Nc1ccc(F)cc1` as the compound, how does the survivor count [1] read?
Answer: Its survivor count is 6 of 6.

Question: Which survivor count (dose: 400.0 mg/kg/injection, schedule: Q01DX001 (ip), vehicle: saline) does the source give for `N#CC(Cc1ccccc1)c1ccccc1` (stereo not drawn) here?
Answer: The survivor count was 1 of 4.

Question: For `Nc1nc(N)c2nc(CBr)cnc2n1`, which survivor count (dose: 50.0 mg/kg/injection, schedule: Q01DX009 (ip), vehicle: saline) is on record?
Answer: Its survivor count is 2 of 3.

Question: What about the survivor count [2] of the same compound?
Answer: The survivor count was 0 of 3.

Question: And the survivor count (dose: 200.0 mg/kg/injection, schedule: Q01DX009 (ip), vehicle: saline)?
Answer: Its survivor count is 0 of 3.

Question: What does the source list for `Cc1cccc(N2C(N)=NC(N)=NC2(C)C)c1`?
Answer: survivor count [10]: 2 of 6 and 5 of 6; survivor count [3]: 0 of 6; survivor count [4]: 0 of 6; survivor count [11]: 1 of 6; survivor count [5]: 0 of 6
